Reference: PMC2947522
These are yes or no findings as the source states them, for the method shown. For some of these results: In cells and extracts the contact can be indirect. Some entries that bind do so weakly or less than the wild type. For some of these results: Tags and fused reporters may be left off the sequences shown. Values belong to the molecule of their own block, whether it stands above or below them.

By UniProt entry, the sequences of proteins in these tests, tags left out. Where a name states a change or a piece, a line headed by the entry shows the natural chain unless it says otherwise.
UniProt Q15797: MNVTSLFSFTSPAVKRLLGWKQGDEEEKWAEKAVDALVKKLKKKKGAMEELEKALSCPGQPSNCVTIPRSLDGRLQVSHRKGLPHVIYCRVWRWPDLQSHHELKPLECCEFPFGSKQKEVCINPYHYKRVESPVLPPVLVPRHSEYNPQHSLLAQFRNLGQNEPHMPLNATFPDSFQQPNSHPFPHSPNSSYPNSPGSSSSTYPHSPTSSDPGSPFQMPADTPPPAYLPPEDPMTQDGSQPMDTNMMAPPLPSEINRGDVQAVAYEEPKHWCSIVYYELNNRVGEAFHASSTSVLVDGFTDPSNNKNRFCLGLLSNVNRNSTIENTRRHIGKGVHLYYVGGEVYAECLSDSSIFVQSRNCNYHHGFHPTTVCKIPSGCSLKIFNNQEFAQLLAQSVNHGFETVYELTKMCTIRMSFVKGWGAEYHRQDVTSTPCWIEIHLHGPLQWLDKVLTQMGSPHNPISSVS
UniProt P28867: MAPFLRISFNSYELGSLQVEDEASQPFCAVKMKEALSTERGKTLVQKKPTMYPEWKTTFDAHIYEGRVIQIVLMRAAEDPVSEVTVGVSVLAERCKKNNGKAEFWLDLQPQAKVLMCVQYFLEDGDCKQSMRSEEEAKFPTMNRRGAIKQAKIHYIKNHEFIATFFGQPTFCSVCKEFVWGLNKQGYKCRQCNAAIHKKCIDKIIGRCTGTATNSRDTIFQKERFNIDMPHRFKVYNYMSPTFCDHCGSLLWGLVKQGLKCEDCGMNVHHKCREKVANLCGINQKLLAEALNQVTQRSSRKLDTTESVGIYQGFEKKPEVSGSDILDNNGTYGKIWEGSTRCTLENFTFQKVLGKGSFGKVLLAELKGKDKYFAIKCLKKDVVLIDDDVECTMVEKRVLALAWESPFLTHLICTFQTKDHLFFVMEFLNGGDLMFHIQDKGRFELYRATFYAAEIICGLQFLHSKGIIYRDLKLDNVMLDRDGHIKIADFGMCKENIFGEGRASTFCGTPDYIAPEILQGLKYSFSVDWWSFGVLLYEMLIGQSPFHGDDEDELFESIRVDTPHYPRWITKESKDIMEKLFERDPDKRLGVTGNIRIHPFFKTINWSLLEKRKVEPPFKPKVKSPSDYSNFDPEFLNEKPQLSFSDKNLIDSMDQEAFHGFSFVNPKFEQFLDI

Columns and labels:
GST-Smad1 fusion protein [1] = biological target: GST-Smad1 fusion protein (UniProt Q15797); assay: pull-down; GST-Smad1 coupled to Glutathione-Sepharose, incubated with mPOB lysate (20 mM HEPES-KOH pH 7.5, 150 mM NaCl, 1% Triton-X100) for 1 h at 4 C, washed three times; endogenous PKCδ detected by Western blot; only the target purified
GST-Smad1 fusion protein [2] = biological target: GST-Smad1 fusion protein (UniProt Q15797); assay: pull-down; GST-Smad1 coupled to Glutathione-Sepharose, incubated with Flag-JunD (WT or C-terminally truncated) or V5-ΔFosB; washed; detected by Western blot with anti-Flag or anti-V5; only the target purified
Myc-tagged Smad1 = Myc-tagged Smad1 (UniProt Q15797); assay: DNA precipitation assay; nuclear lysates of mPOBs co-transfected with V5-ΔFosB, Flag-JunD (WT, Δ1 or Δ2) and Myc-Smad1; biotinylated IL-11 promoter probe 1 (AP-1 site) or probe 3 (SBE) on Streptavidin Sepharose, 4 C; Western blot with anti-V5, anti-Flag and anti-Myc

- binding (GST-Smad1 fusion protein [1]): binds
Molecule: protein kinase C (PKC)δ (from UniProt P28867 1-674) (enzyme)

- binding (GST-Smad1 fusion protein [2]): binds
- binding (Myc-tagged Smad1): binds
B1: Flag-tagged JunD (WT: full-length) (protein, UniProt P15066 1-341)
chain: METPFYGEEALSGLAAGASSVAGATGAPGGGGFAPPGRAFPGAPPTSSMLKKDALTLSLAEQGAAGLKPGSATAPSALRPDGAPDGLLASPDLGLLKLASPELERLIIQSNGLVTTTPTSTQFLYPKVAASEEQEFAEGFVKALEDLHKQSQLGAATAATSGAPAPPAPADLAATPGATETPVYANLSSFAGGAGPPGGAATVAFAAEPVPFPPPPGALGPPPPPHPPRLAALKDEPQTVPDVPSFGDSPPLSPIDMDTQERIKAERKRLRNRIAASKCRKRKLERISRLEEKVKTLKSQNTELASTASLLREQVAQLKQKVLSHVNSGCQLLPQHQVPAY

- binding (GST-Smad1 fusion protein [2]): no binding
B2: V5-tagged ΔFosB (full-length) (protein, UniProt P13346-2 1-237)
chain: MFQAFPGDYDSGSRCSSSPSAESQYLSSVDSFGSPPTAAASQECAGLGEMPGSFVPTVTAITTSQDLQWLVQPTLISSMAQSQGQPLASQPPAVDPYDMPGTSYSTPGLSAYSTGGASGSGGPSTSTTTSGPVSARPARARPRRPREETLTPEEEEKRRVRRERNKLAAAKCRNRRRELTDRLQAETDQLEEEKAELESEIAELQKEKERLEFVLVAHKPGCKIPYEEGPGPGPLAE
